No constants are given. Whether binding was seen depends on the method and setting. Some results given as binding are weak or reduced against the parent protein; the word gives no strength.

This experiment has as its target T1, Ubc13 (S. cerevisiae) (UniProt P52490).
T1 sequence: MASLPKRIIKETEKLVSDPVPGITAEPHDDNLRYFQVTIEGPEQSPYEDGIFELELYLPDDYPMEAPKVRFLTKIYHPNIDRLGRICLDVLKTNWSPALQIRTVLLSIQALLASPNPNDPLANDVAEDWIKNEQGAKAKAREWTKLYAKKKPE
In words: two-hybrid.

B1: Rad5 (protein, UniProt P32849 1-1169)
chain: MSHIEQEERKRFFNDDLDTSETSLNFKSENKESFLFANSHNDDDDDVVVSVSDTTEGEGDRSIVPVRREIEEEGQNQFITELLRIIPEMPKDLVMELNEKFGSQEEGLSLALSHYFDHNSGTSISKIPSSPNQLNTLSDTSNSTLSPSSFHPKRRRIYGFRNQTRLEDKVTWKRFIGALQVTGMATRPTVRPLKYGSQMKLKRSSEEISATKVYDSRGRKKASMASLVRIFDIQYDREIGRVSEDIAQILYPLLSSHEISFEVTLIFCDNKRLSIGDSFILQLDCFLTSLIFEERNDGESLMKRRRTEGGNKREKDNGNFGRTLTETDEELESRSKRLALLKLFDKLRLKPILDEQKALEKHKIELNSDPEIIDLDNDEICSNQVTEVHNNLRDTQHEEETMNLNQLKTFYKAAQSSESLKSLPETEPSRDVFKLELRNYQKQGLTWMLRREQEFAKAASDGEASETGANMINPLWKQFKWPNDMSWAAQNLQQDHVNVEDGIFFYANLHSGEFSLAKPILKTMIKGGILSDEMGLGKTVAAYSLVLSCPHDSDVVDKKLFDIENTAVSDNLPSTWQDNKKPYASKTTLIVVPMSLLTQWSNEFTKANNSPDMYHEVYYGGNVSSLKTLLTKTKTPPTVVLTTYGIVQNEWTKHSKGRMTDEDVNISSGLFSVNFYRIIIDEGHNIRNRTTVTSKAVMALQGKCKWVLTGTPIINRLDDLYSLVKFLELDPWRQINYWKTFVSTPFESKNYKQAFDVVNAILEPVLLRRTKQMKDKDGKPLVELPPKEVVIKRLPFSKSQDLLYKFLLDKAEVSVKSGIARGDLLKKYSTILVHILRLRQVCCHPGLIGSQDENDEDLSKNNKLVTEQTVELDSLMRVVSERFDNSFSKEELDAMIQRLKVKYPDNKSFQSLECSICTTEPMDLDKALFTECGHSFCEKCLFEYIEFQNSKNLGLKCPNCRNQIDACRLLALVQTNSNSKNLEFKPYSPASKSSKITALLKELQLLQDSSAGEQVVIFSQFSTYLDILEKELTHTFSKDVAKIYKFDGRLSLKERTSVLADFAVKDYSRQKILLLSLKAGGVGLNLTCASHAYMMDPWWSPSMEDQAIDRLHRIGQTNSVKVMRFIIQDSIEEKMLRIQEKKRTIGEAMDTDEDERRKRRIEEIQMLFE
Take B1: the binding result is on record as “binds”.

B2: Rad5 E783D (protein, UniProt P32849 1-1169)
chain: MSHIEQEERKRFFNDDLDTSETSLNFKSENKESFLFANSHNDDDDDVVVSVSDTTEGEGDRSIVPVRREIEEEGQNQFITELLRIIPEMPKDLVMELNEKFGSQEEGLSLALSHYFDHNSGTSISKIPSSPNQLNTLSDTSNSTLSPSSFHPKRRRIYGFRNQTRLEDKVTWKRFIGALQVTGMATRPTVRPLKYGSQMKLKRSSEEISATKVYDSRGRKKASMASLVRIFDIQYDREIGRVSEDIAQILYPLLSSHEISFEVTLIFCDNKRLSIGDSFILQLDCFLTSLIFEERNDGESLMKRRRTEGGNKREKDNGNFGRTLTETDEELESRSKRLALLKLFDKLRLKPILDEQKALEKHKIELNSDPEIIDLDNDEICSNQVTEVHNNLRDTQHEEETMNLNQLKTFYKAAQSSESLKSLPETEPSRDVFKLELRNYQKQGLTWMLRREQEFAKAASDGEASETGANMINPLWKQFKWPNDMSWAAQNLQQDHVNVEDGIFFYANLHSGEFSLAKPILKTMIKGGILSDEMGLGKTVAAYSLVLSCPHDSDVVDKKLFDIENTAVSDNLPSTWQDNKKPYASKTTLIVVPMSLLTQWSNEFTKANNSPDMYHEVYYGGNVSSLKTLLTKTKTPPTVVLTTYGIVQNEWTKHSKGRMTDEDVNISSGLFSVNFYRIIIDEGHNIRNRTTVTSKAVMALQGKCKWVLTGTPIINRLDDLYSLVKFLELDPWRQINYWKTFVSTPFESKNYKQAFDVVNAILEPVLLRRTKQMKDKDGKPLVDLPPKEVVIKRLPFSKSQDLLYKFLLDKAEVSVKSGIARGDLLKKYSTILVHILRLRQVCCHPGLIGSQDENDEDLSKNNKLVTEQTVELDSLMRVVSERFDNSFSKEELDAMIQRLKVKYPDNKSFQSLECSICTTEPMDLDKALFTECGHSFCEKCLFEYIEFQNSKNLGLKCPNCRNQIDACRLLALVQTNSNSKNLEFKPYSPASKSSKITALLKELQLLQDSSAGEQVVIFSQFSTYLDILEKELTHTFSKDVAKIYKFDGRLSLKERTSVLADFAVKDYSRQKILLLSLKAGGVGLNLTCASHAYMMDPWWSPSMEDQAIDRLHRIGQTNSVKVMRFIIQDSIEEKMLRIQEKKRTIGEAMDTDEDERRKRRIEEIQMLFE
Take B2: the binding entry is reported as “binds”.

These data come from paper doi:10.1101/2023.06.25.546467.
